Reference: article PMC9201945 (Frontiers in Molecular Neuroscience, 2022)
Results are given in words; binding and its absence hold for the method and conditions named. Binding seen in cells or lysates may run through a third protein. Some binding calls cover weakened binding; strength is not graded here.

Amino acid sequences for entries named in this document (tags omitted).
UniProt Q9EP80: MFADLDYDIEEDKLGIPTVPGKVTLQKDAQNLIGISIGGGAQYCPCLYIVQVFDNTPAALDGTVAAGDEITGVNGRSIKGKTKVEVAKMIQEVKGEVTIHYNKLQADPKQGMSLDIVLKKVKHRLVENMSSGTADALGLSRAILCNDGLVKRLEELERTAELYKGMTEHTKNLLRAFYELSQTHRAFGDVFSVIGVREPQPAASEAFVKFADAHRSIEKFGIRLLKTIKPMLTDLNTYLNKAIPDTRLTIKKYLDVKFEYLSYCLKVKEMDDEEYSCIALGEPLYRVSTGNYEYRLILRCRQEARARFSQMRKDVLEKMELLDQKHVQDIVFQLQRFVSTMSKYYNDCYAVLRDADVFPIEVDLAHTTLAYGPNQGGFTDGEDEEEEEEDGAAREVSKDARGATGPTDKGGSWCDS

Molecular target: PICK1 as two differently tagged copies (mGFP-PICK1 and mCherry-PICK1) (UniProt Q9EP80)
Test: FRET or BRET; FLIM-FRET (mGFP lifetime) in dendrites of cultured rat neurons co-expressing mGFP-PICK1 and mCherry-PICK1; vehicle or NMDA for 3 min, fixed at 0 or 5 min after stimulation

binding: binds
Substance: PICK1 as two differently tagged copies (mGFP-PICK1 and mCherry-PICK1) (from UniProt Q9EP80 1-416)
